Assay results reported in patent US9926581B2, “Fagopyritol synthase genes and uses thereof” (Cornell Research Foundation, Inc., priority 2002, dated 2018).
Several values for one entry are separate records, joined by “and”; a condition that tells them apart may be missing. Equal entries are not always repeated.

Assays:
soybean explants [1] = experiment: Soybean explant feeding 3 days with 50 mM cyclitol in 1% sucrose, slow drying time course, soluble carbohydrates in axis, cotyledon, seed coat and leaf
buckwheat embryos = experiment: Soluble carbohydrates in buckwheat embryos from seeds matured at 15, 22 or 30° C.; type: in vivo, Fagopyrum esculentum Moench; conditions: harvested at 28 DAP and dried 2 weeks at 12% RH, mean ± SE
buckwheat explants = experiment: Buckwheat explant feeding with 100 mM cyclitol in 1% sucrose for 5 days, soluble carbohydrates in embryos and leaf disks; type: in vivo, Fagopyrum esculentum; conditions: replicate values
immature soybean embryos = experiment: Embryo feeding experiments: cyclitols fed to immature soybean embryos, precocious maturation by slow drying, soluble carbohydrates in axis and cotyledons; type: in vivo, Glycine max (L.) Merrill; conditions: for increase in concentration after feeding D-chiro-inositol: concentration series, 14 days precocious maturation
soybean explants [2] = experiment: Soybean explant feeding with 50 mM free cyclitols for one week, soluble carbohydrates in mature seeds; type: in vivo, Glycine max (L.) Merrill cv. Chippewa 64
[3] = 3 days transport of sucrose (1%) and myo-inositol (50 mM), after 14 days slow drying, Rep 2
[4] = 3 days transport of sucrose (1%) and myo-inositol (50 mM), before slow drying, Rep 1
[5] = 3 days transport of sucrose (1%) and myo-inositol (50 mM), before slow drying, Rep 2
[6] = 3 days transport of sucrose (1%) without cyclitols, after 2 days slow drying, Rep 1
[7] = 3 days transport of sucrose (1%) without cyclitols, after 2 days slow drying, Rep 2
[8] = 3 days transport of sucrose (1%) without cyclitols, after 4 days slow drying, Rep 1
[9] = 3 days transport of sucrose (1%) without cyclitols, after 4 days slow drying, Rep 2
[10] = 3 days transport of sucrose (1%) without cyclitols, after 14 days slow drying, Rep 1
[11] = 3 days transport of sucrose (1%) without cyclitols, after 14 days slow drying, Rep 2
[12] = 3 days transport of sucrose (1%) without cyclitols, before slow drying, Rep 1
[13] = 3 days transport of sucrose (1%) without cyclitols, before slow drying, Rep 2

SMILES: OCC1O[C@H](OC2C(O)[C@H](O)C(O)C(O)[C@@H]2O)C(O)C(O)[C@H]1O (stereo partly drawn) [Fagopyritol B1, α-D-galactopyranosyl-(1→2)-1D-chiro-inositol]
- Accumulation of soluble carbohydrates in soybean cotyledons (soybean explants [1]; [3]): 49.29 μg/cotyledon
- Accumulation of soluble carbohydrates in soybean seed coats (soybean explants [1]; [3]): 6.47 μg/seed coat
- Accumulation of soluble carbohydrates in soybean axis (soybean explants [1]; [4]): 0 μg/axis
- Accumulation of soluble carbohydrates in soybean cotyledons (soybean explants [1]; [4]): 0 μg/cotyledon
- Accumulation of soluble carbohydrates in soybean axis (soybean explants [1]; [5]): 0 μg/axis
- Accumulation of soluble carbohydrates in soybean cotyledons (soybean explants [1]; [5]): 0 μg/cotyledon
- Accumulation of soluble carbohydrates in soybean axis (soybean explants [1]; [6]): 3.51 μg/axis
- Accumulation of soluble carbohydrates in soybean cotyledon (soybean explants [1]; [6]): 4.72 μg/cotyledon
- Accumulation of soluble carbohydrates in soybean seed coats (soybean explants [1]; [6]): 3.43 μg/seed coat
- Accumulation of soluble carbohydrates in soybean axis (soybean explants [1]; [7]): 5.52 μg/axis
- Accumulation of soluble carbohydrates in soybean cotyledon (soybean explants [1]; [7]): 13.12 μg/cotyledon
- Accumulation of soluble carbohydrates in soybean seed coats (soybean explants [1]; [7]): 3.27 μg/seed coat
- Accumulation of soluble carbohydrates in soybean axis (soybean explants [1]; [8]): 7.09 μg/axis
- Accumulation of soluble carbohydrates in soybean cotyledon (soybean explants [1]; [8]): 72.21 μg/cotyledon
- Accumulation of soluble carbohydrates in soybean seed coats (soybean explants [1]; [8]): 1.69 μg/seed coat
- Accumulation of soluble carbohydrates in soybean axis (soybean explants [1]; [9]): 6.40 μg/axis
- Accumulation of soluble carbohydrates in soybean cotyledon (soybean explants [1]; [9]): 62.04 μg/cotyledon
- Accumulation of soluble carbohydrates in soybean seed coats (soybean explants [1]; [9]): 5.41 μg/seed coat
- Accumulation of soluble carbohydrates in soybean axis (soybean explants [1]; [10]): 8.41 μg/axis
- Accumulation of soluble carbohydrates in soybean cotyledon (soybean explants [1]; [10]): 83.93 μg/cotyledon
- Accumulation of soluble carbohydrates in soybean seed coats (soybean explants [1]; [10]): 2.54 μg/seed coat
- Accumulation of soluble carbohydrates in soybean axis (soybean explants [1]; [11]): 4.98 μg/axis
- Accumulation of soluble carbohydrates in soybean cotyledon (soybean explants [1]; [11]): 57.10 μg/cotyledon
- Accumulation of soluble carbohydrates in soybean seed coats (soybean explants [1]; [11]): 3.44 μg/seed coat
- Accumulation of soluble carbohydrates in soybean axis (soybean explants [1]; [12]): 1.70 μg/axis
- Accumulation of soluble carbohydrates in soybean cotyledon (soybean explants [1]; [12]): 1.89 μg/cotyledon
- Accumulation of soluble carbohydrates in soybean axis (soybean explants [1]; [13]): 0 μg/axis
- Accumulation of soluble carbohydrates in soybean cotyledon (soybean explants [1]; [13]): 2.10 μg/cotyledon
- increase after feeding D-chiro-inositol (soybean explants [1]; printed 'in seed coats' in the paragraph on axis tissues of dry seeds): 10 fold
- Soluble carbohydrates in buckwheat embryos (buckwheat embryos; seeds matured at 15° C.): 256.00 ± 38.30 μg/embryo
- Soluble carbohydrates in buckwheat embryos (buckwheat embryos; seeds matured at 22° C.): 219.15 ± 24.20 μg/embryo
- Soluble carbohydrates in buckwheat embryos (buckwheat embryos; seeds matured at 30° C.): 159.60 ± 7.70 μg/embryo
- Soluble carbohydrates in embryos of seeds from buckwheat explants (buckwheat explants; fed 100 mM D-chiro-inositol in 1% sucrose solution 5 days, 2 days slow drying): 127.23 μg/embryo and 635.89 μg/embryo
- Soluble carbohydrates in embryos of seeds from buckwheat explants (buckwheat explants; fed 100 mM D-chiro-inositol in 1% sucrose solution 5 days, 4 days slow drying): 125.16 μg/embryo and 388.66 μg/embryo and 270.67 μg/embryo
- Soluble carbohydrates in embryos of seeds from buckwheat explants (buckwheat explants; fed 100 mM D-chiro-inositol in 1% sucrose solution 5 days, 7 days slow drying): 298.43 μg/embryo and 190.64 μg/embryo and 208.33 μg/embryo
- Soluble carbohydrates in embryos of seeds from buckwheat explants (buckwheat explants; fed 100 mM D-chiro-inositol in 1% sucrose solution, after 1 day feeding): 0 μg/embryo
- Soluble carbohydrates in embryos of seeds from buckwheat explants (buckwheat explants; fed 100 mM D-chiro-inositol in 1% sucrose solution, after 5 days feeding): 33.64 μg/embryo and 623.00 μg/embryo and 322.50 μg/embryo
- Soluble carbohydrates in embryos of seeds from buckwheat explants (buckwheat explants; fed 100 mM D-pinitol in 1% sucrose solution 5 days, 2 days slow drying): 7.29 μg/embryo and 165.96 μg/embryo and 111.41 μg/embryo
- Soluble carbohydrates in embryos of seeds from buckwheat explants (buckwheat explants; fed 100 mM D-pinitol in 1% sucrose solution 5 days, 4 days slow drying): 116.5 μg/embryo and 165.56 μg/embryo and 77.90 μg/embryo
- Soluble carbohydrates in embryos of seeds from buckwheat explants (buckwheat explants; fed 100 mM D-pinitol in 1% sucrose solution 5 days, 7 days slow drying): 64.64 μg/embryo and 77.20 μg/embryo and 119.44 μg/embryo
- Soluble carbohydrates in embryos of seeds from buckwheat explants (buckwheat explants; fed 100 mM D-pinitol in 1% sucrose solution, after 1 day feeding): 1.44 μg/embryo
- Soluble carbohydrates in embryos of seeds from buckwheat explants (buckwheat explants; fed 100 mM D-pinitol in 1% sucrose solution, after 5 days feeding): 0.98 μg/embryo and 90.76 μg/embryo and 75.14 μg/embryo
- Soluble carbohydrates in embryos of seeds from buckwheat explants (buckwheat explants; fed 100 mM myo-inositol in 1% sucrose solution 5 days, 2 days slow drying): 300.84 μg/embryo and 129.87 μg/embryo
- Soluble carbohydrates in embryos of seeds from buckwheat explants (buckwheat explants; fed 100 mM myo-inositol in 1% sucrose solution 5 days, 4 days slow drying): 111.78 μg/embryo and 183.36 μg/embryo
- Soluble carbohydrates in embryos of seeds from buckwheat explants (buckwheat explants; fed 100 mM myo-inositol in 1% sucrose solution 5 days, 7 days slow drying): 79.17 μg/embryo and 188.73 μg/embryo
- Soluble carbohydrates in embryos of seeds from buckwheat explants (buckwheat explants; fed 100 mM myo-inositol in 1% sucrose solution, after 1 day feeding): 0 μg/embryo
- Soluble carbohydrates in embryos of seeds from buckwheat explants (buckwheat explants; fed 100 mM myo-inositol in 1% sucrose solution, after 5 days feeding): 95.33 μg/embryo and 44.47 μg/embryo
- Soluble carbohydrates in embryos of seeds from buckwheat explants (buckwheat explants; fed 1% sucrose (without cyclitols) solution 5 days, 2 days slow drying): 55.08 μg/embryo and 237.27 μg/embryo and 476.65 μg/embryo
- Soluble carbohydrates in embryos of seeds from buckwheat explants (buckwheat explants; fed 1% sucrose (without cyclitols) solution 5 days, 4 days slow drying): 89.92 μg/embryo and 72.98 μg/embryo
- Soluble carbohydrates in embryos of seeds from buckwheat explants (buckwheat explants; fed 1% sucrose (without cyclitols) solution 5 days, 7 days slow drying): 138.32 μg/embryo and 111.37 μg/embryo
- Soluble carbohydrates in embryos of seeds from buckwheat explants (buckwheat explants; fed 1% sucrose (without cyclitols) solution, after 5 days feeding): 0.87 μg/embryo and 151.69 μg/embryo
- reduction after feeding D-pinitol and D-chiro-inositol compared to D-chiro-inositol alone (immature soybean embryos; axis tissues, 14 days): about 50%
- increase in concentration after feeding D-chiro-inositol (immature soybean embryos; axis tissues): 17 fold
- change in accumulation after feeding 25 to 50 mM myo-inositol (immature soybean embryos; cotyledons): reduced
- increase in concentration after feeding D-chiro-inositol (immature soybean embryos; cotyledons): 7 fold
- concentration in cotyledons at day 4 of slow drying (immature soybean embryos; fed 100 mM D-chiro-inositol alone): 16 mg/g DW
- concentration in cotyledons at day 4 of slow drying (immature soybean embryos; fed combination of 100 mM D-pinitol and 100 mM D-chiro-inositol): 14 mg/g DW
- change in concentration after feeding 50 mM myo-inositol to explants (soybean explants [2]; axis and cotyledon tissue of mature seeds): no significant increase
- increase after feeding 50 mM D-chiro-inositol to explants (soybean explants [2]; axis tissues): 17 fold
- increase after feeding 50 mM D-chiro-inositol to explants (soybean explants [2]; cotyledon tissues): 20 fold
